{
  "source": "patent US20080096967A1",
  "about": "“Formulations for Injection of Catecholic Butanes, Including Ndga Compounds, Into Animals” (priority 2005, published 2008)",
  "key": {"[1]": {"test": "Solubility of M4N in water-soluble organic solvents (Table 20, visual inspection)", "format": "physicochemical", "description": "A 100 mL solution of M4N at a concentration of about 25 mg/mL in PEG 300 was made as follows. About 100 mL of PEG 300 were added to a glass beaker containing a stir bar. The beaker was placed on a magnetic plate and the stir bar was set to stir at medium speed. About 2.5 g of M4N were slowly added to the PEG 300 in the center of the beaker with the aid of a spatula to prevent M4N from sticking to the beaker wall. The M4N/PEG 300 mixture was stirred for 24 hr or until all M4N had dissolved or was uniformly suspended without any clumps being present. The M4N/PEG 300 mixture was optionally heated at about 60° C. for about 30 min. (or longer if a larger volume of solution was desired, for example, 1 hr at 60° C. for 500 mL of the M4N/PEG 300 mixture), or longer as needed to ensure complete dissolution of M4N. […] If crystals formed, the M4N/PEG 300 solution could be heated again at 60° C. for about 1 hr, with stirring, on a hot magnetic plate until all M4N was dissolved back in solution. The final M4N/PEG 300 solution was stored at room temperature and was kept protected from light. This process may be scaled up or down to obtain the requisite volume or concentration of M4N. Formulations containing M4N in other PEGs may be similarly made, such as, for example, by substituting PEG 300 in the process described above with PEG 400 or PEG 400 monolaurate.\nThis process may be scaled up or down to obtain the requisite volume or concentration of M4N and the heating temperature may be increased or decreased to achieve dissolution of M4N. Formulations containing M4N in other water-insoluble lipids combined with non-ionic surfactants, ionic surfactants or water-soluble organic solvents may be similarly made, such as, for example, by substituting sesame oil or Tween® 20 in the process described above with corn oil, olive oil, soybean oil, peppermint oil, Tween® 80, d-alpha-tocopheryl polyethylene glycol 1000 succinate (TPGS), lecithin, PEG 300, PEG 400, PEG 400 monolaurate, glycerol, polyvinylpyrrolidone (“PVP”), propylene glycol (“PG”), or other solubilizing agents, and combinations thereof."}, "[2]": {"test": "Solubility of M4N in non-ionic surfactants (Table 21, visual inspection)", "format": "physicochemical", "description": "A 10 mL solution of M4N at a concentration of about 60 mg/mL in Tween® 20 was made as follows. About 10 mL of Tween® 20 were added to a glass beaker containing a stir bar. The beaker was placed on a magnetic plate and the stir bar was set to stir at medium speed. About 600 mg of M4N were slowly added to the Tween® 20 in the center of the beaker with the aid of a spatula to prevent M4N from sticking to the beaker wall. The M4N/Tween® 20 mixture was stirred for 2 hr or until all M4N had dissolved or was uniformly suspended without any clumps being present. The M4N/Tween® 20 mixture was heated at about 60° C. for about 30 min. (or longer if a larger volume of solution was desired, for example, 1 hr at 60° C. for 500 mL of the M4N/Tween® 20 mixture), or longer as need to ensure complete dissolution of M4N. […] The final M4N/Tween® 20 solution was stored at room temperature and was kept protected from light. If crystals were to form during storage, the M4N/Tween® 20 solution could be heated again at 60° C. for about 1 hr, with stirring, on a hot magnetic plate or until all M4N was dissolved back in solution.\nThis process may be scaled up or down to obtain the requisite volume or concentration of M4N and the heating temperature may be increased or decreased to achieve dissolution of M4N. Formulations containing M4N in other non-ionic surfactant, ionic surfactants or amphiphilic molecules may be similarly made, such as, for example, by substituting Tween® 20 in the process described above with Tween® 80, other solubilizing agents, and combinations thereof."}, "[3]": {"details": "Propylene Glycol 100%, M4N 1 mg/mL"}, "[4]": {"details": "Propylene Glycol 100%, M4N 10 mg/mL"}, "[5]": {"details": "Propylene Glycol 100%, M4N 20 mg/mL"}, "[6]": {"details": "50% Tween ® 20, 50% PEG 400, M4N 30 mg/mL"}, "[7]": {"details": "50% Tween ® 20, 50% PEG 400, M4N 40 mg/mL"}, "[8]": {"details": "50% Tween ® 20, 50% PEG 400, M4N 50 mg/mL"}, "[9]": {"details": "50% Tween ® 20, 50% PEG 400, M4N 60 mg/mL"}, "[10]": {"details": "Tween ® 20 100% (v/v), M4N 10 mg/mL"}, "[11]": {"details": "Tween ® 20 100% (v/v), M4N 20 mg/mL"}, "[12]": {"details": "Tween ® 20 100% (v/v), M4N 40 mg/mL"}, "[13]": {"details": "Tween ® 20 100% (v/v), M4N 60 mg/mL"}, "[14]": {"details": "Tween ® 20 100% (v/v), M4N 80 mg/mL"}, "[15]": {"details": "Tween ® 20 100% (v/v), M4N 100 mg/mL"}, "[16]": {"details": "Tween ® 80 100% (v/v), M4N 10 mg/mL"}, "[17]": {"details": "Tween ® 80 100% (v/v), M4N 50 mg/mL"}},
  "note": "The source gives many values for each of these; only a part stands here.",
  "data": [
    {"smiles": "COc1ccc(C[C@@H](C)[C@@H](C)Cc2ccc(OC)c(OC)c2)cc1OC", "note": "[Formulation M4N, meso-1,4-bis(3,4-dimethoxyphenyl)-2,3-dimethylbutane]", "values": [
      {"measurement": "Dissolution After Rotation", "setting": "[1]; 40% Propylene Glycol, 10% Ethanol, M4N 10 mg/mL", "value": "N"},
      {"measurement": "Dissolution After Rotation", "setting": "[1]; Ethanol 100%, M4N 1 mg/mL", "value": "Y"},
      {"measurement": "Dissolution After Rotation", "setting": "[1]; Ethanol 100%, M4N 10 mg/mL", "value": "N"},
      {"measurement": "Dissolution After Cool-Down", "setting": "[1]; Glycerol 100%, M4N 1 mg/mL", "value": "N"},
      {"measurement": "Dissolution After Rotation", "setting": "[1]; Glycerol 100%, M4N 1 mg/mL", "value": "N"},
      {"measurement": "Dissolution After Cool-Down", "setting": "[1]; Glycerol 100%, M4N 10 mg/mL", "value": "N"},
      {"measurement": "Dissolution After Rotation", "setting": "[1]; Glycerol 100%, M4N 10 mg/mL", "value": "N"},
      {"measurement": "Dissolution After Cool-Down", "setting": "[1]; Glycerol 100%, M4N 20 mg/mL", "value": "N"},
      {"measurement": "Dissolution After Rotation", "setting": "[1]; Glycerol 100%, M4N 20 mg/mL", "value": "N"},
      {"measurement": "Dissolution After Rotation", "setting": "[1]; PEG 300 33%, M4N 10 mg/mL", "value": "N"},
      {"measurement": "Dissolution After Cool-Down", "setting": "[1]; PEG 300 100%, M4N 25 mg/mL", "value": "Y"},
      {"measurement": "Dissolution After Rotation", "setting": "[1]; PEG 300 100%, M4N 25 mg/mL", "value": "N"},
      {"measurement": "Dissolution After Cool-Down", "setting": "[1]; PEG 300 100%, M4N 30 mg/mL", "value": "Y"},
      {"measurement": "Dissolution After Rotation", "setting": "[1]; PEG 300 100%, M4N 30 mg/mL", "value": "N"},
      {"measurement": "Dissolution After Cool-Down", "setting": "[1]; PEG 300 100%, M4N 40 mg/mL", "value": "Y"},
      {"measurement": "Dissolution After Rotation", "setting": "[1]; PEG 300 100%, M4N 40 mg/mL", "value": "N"},
      {"measurement": "Dissolution After Cool-Down", "setting": "[1]; PEG 300 100%, M4N 50 mg/mL", "value": "Y"},
      {"measurement": "Dissolution After Rotation", "setting": "[1]; PEG 300 100%, M4N 50 mg/mL", "value": "N"},
      {"measurement": "Dissolution After Cool-Down", "setting": "[1]; PEG 300 100%, M4N 100 mg/mL", "value": "N"},
      {"measurement": "Dissolution After Rotation", "setting": "[1]; PEG 300 100%, M4N 100 mg/mL", "value": "N"},
      {"measurement": "Dissolution After Rotation", "setting": "[1]; PEG 400 5%, M4N 10 mg/mL", "value": "N"},
      {"measurement": "Dissolution After Cool-Down", "setting": "[1]; PEG 400 100%, M4N 25 mg/mL", "value": "Y"},
      {"measurement": "Dissolution After Rotation", "setting": "[1]; PEG 400 100%, M4N 25 mg/mL", "value": "N"},
      {"measurement": "Dissolution After Cool-Down", "setting": "[1]; PEG 400 100%, M4N 30 mg/mL", "value": "Y"},
      {"measurement": "Dissolution After Rotation", "setting": "[1]; PEG 400 100%, M4N 30 mg/mL", "value": "N"},
      {"measurement": "Dissolution After Cool-Down", "setting": "[1]; PEG 400 100%, M4N 40 mg/mL", "value": "Y"},
      {"measurement": "Dissolution After Rotation", "setting": "[1]; PEG 400 100%, M4N 40 mg/mL", "value": "N"},
      {"measurement": "Dissolution After Cool-Down", "setting": "[1]; PEG 400 100%, M4N 50 mg/mL", "value": "Y"},
      {"measurement": "Dissolution After Rotation", "setting": "[1]; PEG 400 100%, M4N 50 mg/mL", "value": "N"},
      {"measurement": "Dissolution After Cool-Down", "setting": "[1]; PEG 400 100%, M4N 100 mg/mL", "value": "N"},
      {"measurement": "Dissolution After Rotation", "setting": "[1]; PEG 400 100%, M4N 100 mg/mL", "value": "N"},
      {"measurement": "Dissolution After Cool-Down", "setting": "[1]; PEG 400 monolaurate 100%, M4N 20 mg/mL", "value": "Y"},
      {"measurement": "Dissolution After Cool-Down", "setting": "[1]; PEG 400 monolaurate 100%, M4N 50 mg/mL", "value": "Y"},
      {"measurement": "Dissolution After Rotation", "setting": "[1]; PVP 15%, M4N 1 mg/mL", "value": "N"},
      {"measurement": "Dissolution After Rotation", "setting": "[1]; PVP 15%, M4N 10 mg/mL", "value": "N"},
      {"measurement": "Dissolution After Cool-Down", "setting": "[1]; [3]", "value": "Y"},
      {"measurement": "Dissolution After Rotation", "setting": "[1]; [3]", "value": "N"},
      {"measurement": "Dissolution After Cool-Down", "setting": "[1]; [4]", "value": "Y"},
      {"measurement": "Dissolution After Rotation", "setting": "[1]; [4]", "value": "N"},
      {"measurement": "Dissolution After Cool-Down", "setting": "[1]; [5]", "value": "Y"},
      {"measurement": "Dissolution After Rotation", "setting": "[1]; [5]", "value": "N"},
      {"measurement": "Dissolution After Cool Down", "setting": "[2]; [6]", "value": "Y"},
      {"measurement": "Dissolution After Rotation", "setting": "[2]; [6]", "value": "N"},
      {"measurement": "Dissolution After Cool Down", "setting": "[2]; [7]", "value": "Y"},
      {"measurement": "Dissolution After Rotation", "setting": "[2]; [7]", "value": "N"},
      {"measurement": "Dissolution After Cool Down", "setting": "[2]; [8]", "value": "Y"},
      {"measurement": "Dissolution After Rotation", "setting": "[2]; [8]", "value": "N"},
      {"measurement": "Dissolution After Cool Down", "setting": "[2]; [9]", "value": "Y"},
      {"measurement": "Dissolution After Rotation", "setting": "[2]; [9]", "value": "N"},
      {"measurement": "concentration up to which M4N was soluble (highest tested)", "setting": "[2]; 50% Tween® 20 and 50% PEG 400, heated at 65° C.", "value": "≤ 60000", "unit": "µg/mL"},
      {"measurement": "Dissolution After Rotation", "setting": "[2]; Tween ® 20 100% (v/v), M4N 1 mg/mL", "value": "Y"},
      {"measurement": "Dissolution After Cool Down", "setting": "[2]; [10]", "value": "Y"},
      {"measurement": "Dissolution After Rotation", "setting": "[2]; [10]", "value": "N"},
      {"measurement": "Dissolution After Cool Down", "setting": "[2]; [11]", "value": "Y"},
      {"measurement": "Dissolution After Rotation", "setting": "[2]; [11]", "value": "N"},
      {"measurement": "Dissolution After Cool Down", "setting": "[2]; [12]", "value": "Y"},
      {"measurement": "Dissolution After Rotation", "setting": "[2]; [12]", "value": "N"},
      {"measurement": "Dissolution After Cool Down", "setting": "[2]; [13]", "value": "Y"},
      {"measurement": "Dissolution After Rotation", "setting": "[2]; [13]", "value": "N"},
      {"measurement": "Dissolution After Cool Down", "setting": "[2]; [14]", "value": "N"},
      {"measurement": "Dissolution After Rotation", "setting": "[2]; [14]", "value": "N"},
      {"measurement": "Dissolution After Cool Down", "setting": "[2]; [15]", "value": "N"},
      {"measurement": "Dissolution After Rotation", "setting": "[2]; [15]", "value": "N"},
      {"measurement": "Dissolution After Rotation", "setting": "[2]; Tween ® 80 100% (v/v), M4N 1 mg/mL", "value": "Y"},
      {"measurement": "Dissolution After Cool Down", "setting": "[2]; [16]", "value": "Y"},
      {"measurement": "Dissolution After Rotation", "setting": "[2]; [16]", "value": "N"},
      {"measurement": "Dissolution After Cool Down", "setting": "[2]; [17]", "value": "Y"},
      {"measurement": "Dissolution After Rotation", "setting": "[2]; [17]", "value": "N"}
    ]}
  ]
}
